Test results from patent US11033519B2, “Drug combination with antitumor effects” (DONGGUAN ANHAO PHARMACEUTICAL CO., LTD., priority 2016, dated 2021).
At least one compound was matched to its structure with a doubt left. Marks after values point to notes of the source that are not given here.

Test system: mouse Lewis lung cancer
Assay: DX1002 singly used and combined with docetaxel against mouse Lewis lung cancer
Details: mice with Lewis lung cancer; TXT 5 × 5 ip, DX1002 1600 mg/kg × 10 oral

## COc1ccc(/C=C(/C(=O)O)c2cc(OC)c(OC)c(OC)c2)c(O)c1O [DX1002, (E)-3-(2′,3′-dihydroxyl-4′-methoxylphenyl)-2-(3″,4″,5″-trimethoxylphenyl)-2-acrylic acid]
  Body weight (g) (x ± SD): 20.4611.23** g
